Results published in doi:10.1101/2024.08.08.607204, “Mechanism of ASF1 Inhibition by CDAN1” (bioRxiv, 2024).
Where a chain is given by its changes, count along the chain named. Results are given in words; binding and its absence hold for the method and conditions named. In cells and extracts the contact can be indirect. Some entries that bind do so weakly or less than the wild type.

Chains of the proteins cited; added tags and fusions are not shown. Lines headed by an entry give the natural chain unless they say otherwise; changes in a name come on top.
UniProt Q9NVP2: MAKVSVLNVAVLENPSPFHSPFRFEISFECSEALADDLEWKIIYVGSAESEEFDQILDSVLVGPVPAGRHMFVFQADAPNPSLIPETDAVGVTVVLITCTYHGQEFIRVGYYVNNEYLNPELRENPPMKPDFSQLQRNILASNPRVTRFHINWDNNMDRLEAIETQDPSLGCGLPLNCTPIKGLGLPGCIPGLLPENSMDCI
UniProt Q9Y294: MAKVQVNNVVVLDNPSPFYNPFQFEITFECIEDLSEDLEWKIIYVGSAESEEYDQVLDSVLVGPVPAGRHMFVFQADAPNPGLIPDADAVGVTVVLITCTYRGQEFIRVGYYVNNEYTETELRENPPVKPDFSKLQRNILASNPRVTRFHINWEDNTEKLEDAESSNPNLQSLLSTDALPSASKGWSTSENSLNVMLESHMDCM

T1: Strep-CDAN1 H* (R541A/R544A/R548A) (human) (UniProt Q8IWY9)
T1 sequence: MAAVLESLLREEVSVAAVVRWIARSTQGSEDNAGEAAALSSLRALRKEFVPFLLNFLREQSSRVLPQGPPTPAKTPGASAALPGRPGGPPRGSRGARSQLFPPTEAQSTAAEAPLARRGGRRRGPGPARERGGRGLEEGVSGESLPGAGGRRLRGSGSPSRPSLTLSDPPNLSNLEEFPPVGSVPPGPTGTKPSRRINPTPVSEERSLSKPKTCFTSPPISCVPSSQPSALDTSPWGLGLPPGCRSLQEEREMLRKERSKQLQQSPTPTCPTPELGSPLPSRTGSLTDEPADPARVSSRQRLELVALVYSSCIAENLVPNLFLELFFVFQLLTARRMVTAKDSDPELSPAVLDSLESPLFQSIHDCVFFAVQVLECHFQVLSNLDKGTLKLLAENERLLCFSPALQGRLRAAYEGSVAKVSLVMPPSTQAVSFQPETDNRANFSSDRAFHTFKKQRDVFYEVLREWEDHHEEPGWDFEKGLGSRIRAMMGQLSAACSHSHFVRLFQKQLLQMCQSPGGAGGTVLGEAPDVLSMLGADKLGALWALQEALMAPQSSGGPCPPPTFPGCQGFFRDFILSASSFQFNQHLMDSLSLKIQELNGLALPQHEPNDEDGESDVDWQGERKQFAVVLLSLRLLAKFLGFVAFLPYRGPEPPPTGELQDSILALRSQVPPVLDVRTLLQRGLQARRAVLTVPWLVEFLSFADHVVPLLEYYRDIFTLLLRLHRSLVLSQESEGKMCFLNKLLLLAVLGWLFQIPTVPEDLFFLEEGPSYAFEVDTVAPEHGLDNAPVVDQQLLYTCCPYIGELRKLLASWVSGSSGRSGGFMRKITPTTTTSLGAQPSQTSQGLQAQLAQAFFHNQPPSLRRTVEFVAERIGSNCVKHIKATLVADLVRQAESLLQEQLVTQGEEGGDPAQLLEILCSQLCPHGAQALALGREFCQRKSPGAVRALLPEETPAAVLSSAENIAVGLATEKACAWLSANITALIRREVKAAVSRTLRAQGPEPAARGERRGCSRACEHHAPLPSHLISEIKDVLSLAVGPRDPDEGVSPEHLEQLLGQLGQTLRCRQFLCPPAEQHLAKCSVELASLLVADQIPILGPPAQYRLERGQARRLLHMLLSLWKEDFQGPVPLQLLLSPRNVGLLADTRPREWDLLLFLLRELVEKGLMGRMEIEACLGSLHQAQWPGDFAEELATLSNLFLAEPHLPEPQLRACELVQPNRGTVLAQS

T2: Strep-CDAN1 H*+B* (S194A/R195A/R196 + R541A/R544A/R548A) (human) (UniProt Q8IWY9)
T2 sequence: T1 sequence with S194A, R195A, R196A

B1: FLAG-tagged CDIN1 (F-CDIN1) (natural protein, UniProt Q9Y2V0 1-281, looked up)
chain: MILTKAQYDEIAQCLVSVPPTRQSLRKLKQRFPSQSQATLLSIFSQEYQKHIKRTHAKHHTSEAIESYYQRYLNGVVKNGAAPVLLDLANEVDYAPSLMARLILERFLQEHEETPPSKSIINSMLRDPSQIPDGVLANQVYQCIVNDCCYGPLVDCIKHAIGHEHEVLLRDLLLEKNLSFLDEDQLRAKGYDKTPDFILQVPVAVEGHIIHWIESKASFGDECSHHAYLHDQFWSYWNRFGPGLVIYWYGFIQELDCNRERGILLKACFPTNIVTLCHSIA
notes: CDIN1 (C15orf41) cDNA synthesized by IDT, in pCDNA3.1; source: Expi293, transiently transfected, in lysate and purified in complexes (anti-FLAG, Strep-Tactin); not shown: 3xFLAG, N-terminal, kept

Assays:
[1] = target: T1, Strep-CDAN1 H* (R541A/R544A/R548A) (human); experiment: pull-down; Strep-Tactin Sepharose pulldown of ST-CDAN1 variants from lysates of transfected Flp-In 293 T-REx cells (alone, or co-transfected with FLAG-tagged ASF1 variants), IP buffer with 1% Triton X-100, 1 hr at 4°C; immunoblotting
[2] = target: T2, Strep-CDAN1 H*+B* (S194A/R195A/R196 + R541A/R544A/R548A) (human); experiment: as above

Molecule	binding [1]	binding [2]
FLAG-ASF1A>N (ASF1A with the N-terminal domain, residues 1-27, of ASF1B) (from UniProt Q9NVP2 1-27; Q9Y294 28-204)	no binding	no binding
FLAG-ASF1B>N (ASF1B with the N-terminal domain, residues 1-27, of ASF1A) (from UniProt Q9Y294 1-27; Q9NVP2 28-202)	binds	no binding
FLAG-tagged ASF1A (F-ASF1A) (from UniProt Q9Y294 1-204)	binds	no binding
endogenous ASF1A (from UniProt Q9Y294 1-204)	binds	no binding
endogenous ASF1B (from UniProt Q9NVP2 1-202)	no binding	no binding
B1	binds	binds
